Legend:
[1] = Qualitative GC-MS analysis of aromatic compounds transferred from a rosemary vegetal matrix into the filtrate, versus hexane extract; parameters: key: The “x” represents the qualitative presence of the compound in the extract; —: the “−” represents its absence; conditions: Table 5, filtrate (n=3)
[2] = as above; parameters: key: The “x” represents the qualitative presence of the compound in the extract in question; —: the “−” represents its absence; conditions: Table 5, filtrate (n=3)
[3] = Total free carotenoid content after saponification of paprika powder, residue/GML and filtrate/GML (UPLC, UV 470 nm); conditions: for total free carotenoid content after saponification, Paprika filtrate/GML (n = 3) / total free carotenoid content after saponification, Paprika powder / total free carotenoid content after saponification, Paprika residue/GML (n = 3): mean±standard deviation (n=3)

| Molecule | qualitative presence in Extract according to process of invention [1] | qualitative presence in Extract according to process of invention [2] | other results |
| --- | --- | --- | --- |
| 6-isocomene | — |  |  |
| Cc1ccc2c(c1)[C@H](C(C)C)CC[C@@H]2C (relative stereo) [cis-calamenene] |  | x |  |
| C=C(C)[C@@H]1CC=C(C)[C@@H](O)C1 (relative stereo) [trans-carveol] | — |  |  |
| C=C(C)[C@@H]1CCC(=C)[C@@H](O)C1 (relative stereo) [trans-p-mentha-1(7),8-dien-2-ol] |  | x |  |
| CC12CCC(CC1)C(C)(C)O2 [1,8 cineole] |  | x |  |
| Cc1cccc(C)c1O [2,6-dimethylphenol] | — |  |  |
| CC1=CCC2C(C1)C2(C)C (stereo not shown) [3-carene] | — |  |  |
| C=C1CCC2CC1C2(C)C (stereo not shown) [6-pinene] | — |  |  |
| C=C1CC/C=C(/CO)CC[C@@H]2[C@H]1CC2(C)C [14-hydroxy-9-epi-(E)-caryophyllene] |  | x |  |
| C/C1=C\CC(C)(C)/C=C/C/C(CO)=C/CC1 [14-hydroxy-α-humulene] | — |  |  |
| CC1=C(/C=C/C(C)=C/C=C/C(C)=C/C=C/C=C(C)/C=C/C=C(C)/C=C/[C@@]23O[C@]2(C)C[C@@H](O)CC3(C)C)C(C)(C)C[C@H](O)C1 [Antheraxanthin] |  |  | total free carotenoid content after saponification, Paprika filtrate/GML (n = 3) [3]: 85.5 ± 16.6 µg/g; total free carotenoid content after saponification, Paprika powder [3]: 96.8 ± 15.8 µg/g; total free carotenoid content after saponification, Paprika residue/GML (n = 3) [3]: 60.9 ± 19.8 µg/g; share of the total carotenoids identified in paprika powder [3]: 11.8% |
| CC1=C(/C=C/C(C)=C/C=C/C(C)=C/C=C/C=C(C)/C=C/C=C(C)/C=C/C(=O)[C@]2(C)C[C@@H](O)CC2(C)C)C(C)(C)C[C@H](O)C1 [Capsanthin] |  |  | total free carotenoid content after saponification, Paprika filtrate/GML (n = 3) [3]: 233.2 ± 43.3 µg/g; total free carotenoid content after saponification, Paprika powder [3]: 456.6 ± 87.8 µg/g; total free carotenoid content after saponification, Paprika residue/GML (n = 3) [3]: 156.7 ± 43 µg/g; share of the total carotenoids identified in paprika powder [3]: ~56%; extracted and transferred in the filtrate ([3]; paprika, glycerol monolaurate filtrate versus powder): 51% |
| CC(/C=C/C=C(C)/C=C/C(=O)[C@]1(C)C[C@@H](O)CC1(C)C)=C\C=C\C=C(C)\C=C\C=C(C)\C=C\C(=O)[C@]1(C)C[C@@H](O)CC1(C)C [Capsorubin] |  |  | total free carotenoid content after saponification, Paprika filtrate/GML (n = 3) [3]: 8.2 ± 2.1 µg/g; total free carotenoid content after saponification, Paprika powder [3]: 91.7 ± 23.6 µg/g; total free carotenoid content after saponification, Paprika residue/GML (n = 3) [3]: 15.8 ± 4.2 µg/g; share of the total carotenoids identified in paprika powder [3]: 11.1% |
| C/C=C\c1ccc(OC(C)=O)c(OC)c1 [Z-isoeugenol acetate] | — |  |  |
| CC1=C(/C=C/C(C)=C/C=C/C(C)=C/C=C/C=C(C)/C=C/C=C(C)/C=C/C2=C(C)C[C@@H](O)CC2(C)C)C(C)(C)C[C@H](O)C1 [Zeaxanthin] |  |  | total free carotenoid content after saponification, Paprika filtrate/GML (n = 3) [3]: 75.2 ± 12.3 µg/g; total free carotenoid content after saponification, Paprika powder [3]: 79.6 ± 13.1 µg/g; total free carotenoid content after saponification, Paprika residue/GML (n = 3) [3]: 37.5 ± 4.0 µg/g; share of the total carotenoids identified in paprika powder [3]: 9.7% |
| CCCCCCCCCCCCCCCC(=O)O [acide hexadecanoique] |  | x |  |
| CC1(C)C2CCC1(C)C(O)C2 (stereo not shown) [borneol] |  | x |  |
| CC(=O)OC1CC2CCC1(C)C2(C)C (stereo not shown) [bornyl acetate] |  | x |  |
| C=C1C2CCC(C2)C1(C)C.O (stereo not shown) [camphene hydrate] | — |  |  |
| C=C1C2CCC(C2)C1(C)C (stereo not shown) [camphene] | — |  |  |
| CC12CCC(CC1=O)C2(C)C (stereo not shown) [camphre] |  | x |  |
| Cc1ccc(C(C)C)cc1O [carvacrol] | — |  |  |
| C=C(C)C1CC=C(C)C(=O)C1 (stereo not shown) [carvone] | — |  |  |
| CC1=CCC2C(=O)C1C2(C)C (stereo not shown) [chrysanthenone] | — |  |  |
| C=CCc1ccc(O)c(OC)c1 [eugenol] |  | x |  |
| C=C(C)[C@H]1CC=C(C)CC1 [limonene] | — |  |  |
| C=CC(C)(CCC=C(C)C)OC(=O)C(C)C (stereo not shown) [linalool isobutanoate] | — |  |  |

| Molecule | qualitative presence in Extract according to process of invention [1] | qualitative presence in Extract according to process of invention [2] | other results |
| --- | --- | --- | --- |
| C=CC(C)(O)CCC=C(C)C (stereo not shown) [linalool] |  | x |  |
| C=CC(C)(CCC=C(C)C)OC(C)=O (stereo not shown) [linalyl acetate] | — |  |  |
| C=CC(=C)CCC=C(C)C [myrcene] | — |  |  |
| Cc1ccc(C(C)C)cc1 [p-cymene] | — |  |  |
| C=C(C)c1ccc(C)cc1 [p-cymenene] | — |  |  |
| CC1=CC(=O)C(=C(C)C)CC1 [piperitenone] |  | x |  |
| C=C1CCC2(C(C)C)CC12 (stereo not shown) [sabinene] | — |  |  |
| CC1=CCC(O)(C(C)C)CC1 (stereo not shown) [terpinen-4-ol] |  | x |  |
| CC1=CCC(=C(C)C)CC1 [terpinolene] | — |  |  |
| Cc1ccc(C(C)C)c(O)c1 [thymol] | — |  |  |
| CC1=CC(=O)[C@@H]2C[C@H]1C2(C)C [verbenone] |  | x |  |
| C=C1CC[C@H](C(C)C)[C@H]2C=C(C)CC[C@H]12 [y-cadinene] | — |  |  |
| CC1=CC=C(C(C)C)CC1 [α terpinene] | — |  |  |
| CC1=CC2C(CC1)C(C)=CCC2C(C)C (stereo not drawn) [α-amorphene] | — |  |  |
| CC1=CCC(C(C)C)c2cc(C)ccc21 (stereo not drawn) [α-calacorene] |  | x |  |
| CC1=CC[C@H](CC=O)C1(C)C [α-campholenal] | — |  |  |
| C/C1=C\CC/C(C)=C/CC(C)(C)/C=C/C1 [α-caryophyllene] |  | x |  |
| CC1=CCC2CC1C2(C)C (stereo not drawn) [α-pinene] |  | x |  |
| CC1=CCC(C(C)(C)O)CC1 (stereo not drawn) [α-terpineol] |  | x |  |
| CC1=CC[C@@H]2[C@H]3[C@H](C(C)C)CC[C@]2(C)[C@@H]13 [α-ylangene] |  | x |  |
| CC1=C(/C=C/C(C)=C/C=C/C(C)=C/C=C/C=C(C)/C=C/C=C(C)/C=C/C2=C(C)CCCC2(C)C)C(C)(C)CCC1 [β-Carotene] |  |  | total free carotenoid content after saponification, Paprika filtrate/GML (n = 3) [3]: 85.2 ± 12.4 µg/g; total free carotenoid content after saponification, Paprika powder [3]: 69.6 ± 6.7 µg/g; total free carotenoid content after saponification, Paprika residue/GML (n = 3) [3]: 37.5 ± 5.8 µg/g; share of the total carotenoids identified in paprika powder [3]: 8.5% |
| CC1=C(/C=C/C(C)=C/C=C/C(C)=C/C=C/C=C(C)/C=C/C=C(C)/C=C/C2=C(C)C[C@@H](O)CC2(C)C)C(C)(C)CCC1 [β-Cryptoxanthin] |  |  | total free carotenoid content after saponification, Paprika filtrate/GML (n = 3) [3]: 34.6 ± 4.9 µg/g; total free carotenoid content after saponification, Paprika powder [3]: 27.4 ± 6.1 µg/g; total free carotenoid content after saponification, Paprika residue/GML (n = 3) [3]: 16 ± 1.2 µg/g; share of the total carotenoids identified in paprika powder [3]: 3.3% |
| CC1=C[C@H]2C(=C(C)CC[C@H]2C(C)C)CC1 [δ-amorphene] | — |  |  |
| CC1=C[C@@H]2C(=C(C)CC[C@H]2C(C)C)CC1 [δ-cadinene] | — |  |  |
| C=C1CCC(C(C)(C)O)CC1 [δ-terpineol] | — |  |  |
| y-terpinene | — |  |  |
| δ-alacorene | — |  |  |

— patent US20220249978A1, “NOVEL SOLVENT FOR EXTRACTING, SOLUBILISING AND/OR FORMULATING VOLATILE AND NON-VOLATILE COMPOUNDS OF INTEREST IN ANIMAL NUTRITION AND HEALTH, PREPARATION METHOD AND USES THEREOF” (ID4TECH, priority 2019, published 2022)
